Some of the results follow. Repeats in this data set agree poorly, so a single value says little.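 Researchers measured free-swimming zebrafish larvae's O-bend response probability to dark flashes (naive: first five; training: remaining flashes of four 60-flash blocks; test: later 60-flash block) and OMR turning toward alternating leftward/rightward LED motion. Six treated larvae were compared to sixty 0.1% DMSO controls, with |SSMD|≥2 marking a hit.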
What follows are compounds tested on Danio rerio larvae (5 dpf, TLF) (assay: Prob-Test (SSMD vs DMSO vehicle); higher = higher than vehicle (e.g. higher dark-flash O-bend response probability, or better optomotor performance)). Conditions: 10 µM; pre-incubation: 30-90 min.

| SMILES | Prob-Test |
| --- | --- |
| CO[C@H]1/C=C/O[C@]2(C)Oc3c(C)c(O)c4c(O)c(c5c(nc6cc(C)ccn65)c4c3C2=O)NC(=O)/C(C)=C\C=C\[C@@H](C)[C@H](O)[C@H](C)[C@@H](O)[C@@H](C)[C@H](OC(C)=O)[C@@H]1C [Rifaximin] | -0.112 |
| CCOC(=O)n1ccn(C)c1=S [Carbimazole] | 0.124 |
| CC(C)(C)c1cc(NC(=O)Nc2ccc(-c3cn4c(n3)sc3cc(OCCN5CCOCC5)ccc34)cc2)no1 [Quizartinib (AC220)] | 0.227 |
| c1ccc2c(CCNc3ccc(Nc4ccncc4)cc3)c[nH]c2c1 | -0.0436 |
| CC[C@H](/C=C/[C@@H](C)[C@@H]1CC[C@H]2[C@@H]3CC=C4C[C@@H](O)CC[C@]4(C)[C@@H]3CC[C@@]21C)C(C)C [Stigmasterol] | 0.917 |
| CCCC(C(=O)OCCN(CC)CC)(c1ccccc1)c1ccccc1.Cl [Proadifen HCl] | -1.41 |
| Cn1cnc2c(F)c(Nc3ccc(Br)cc3Cl)c(C(=O)NOCCO)cc21 [Selumetinib (AZD6244)] | 0.14 |
| CNC(=O)c1c(F)cccc1Nc1nc(Nc2cc3c(cc2OC)CCN3C(=O)CN(C)C)nc2[nH]ccc12 | 0.172 |
| C[C@@H]1O[C@H](O[C@H]2[C@H](O)[C@@H](O)[C@@H](O[C@H]3[C@H](O)[C@@H](O)[C@H](O)O[C@H]3CO)O[C@H]2CO)[C@H](O)[C@@H](O)[C@@H]1N[C@H]1C=C(CO)[C@@H](O)[C@H](O)[C@@H]1O [Acarbose] | 0.487 |
| COc1cc2ncnc(Nc3ccc(Cl)cc3F)c2cc1OC | -0.372 |
| O=c1c2ccccc2oc2ccccc12 [Xanthone] | -1.76 |
| C#C[C@@]1(OC(C)=O)CC[C@H]2[C@@H]3CCC4=C[C@@H](OC(C)=O)CC[C@@H]4[C@@H]3CC[C@@]21C [Ethynodiol diacetate] | -1.54 |
| CS(=O)(=O)c1ccc([C@@H](O)[C@@H](CF)NC(=O)C(Cl)Cl)cc1 [Florfenicol] | -0.38 |
| NC1CCN(c2c(F)cc3c(=O)c(C(=O)O)cn(C4CC4)c3c2Cl)C1 (stereo unspecified) | -0.289 |
| C=C1c2c(Cl)ccc(O)c2C(O)=C2C(=O)[C@]3(O)C(O)=C(C(N)=O)C(=O)[C@@H](N(C)C)[C@@H]3[C@@H](O)[C@H]12.O=C(O)c1cc(S(=O)(=O)O)ccc1O [Meclocycline Sulfosalicylate] | 0.186 |
| C/C(O)=C(\C#N)C(=O)Nc1ccc(C(F)(F)F)cc1 [Teriflunomide] | 0.214 |
| CC(C)=CCC[C@](C)(O[C@@H]1O[C@H](CO[C@@H]2OC[C@@H](O)[C@H](O)[C@@H]2O)[C@@H](O)[C@H](O)[C@@H]1O)[C@@H]1CC[C@]2(C)[C@@H]1[C@H](O)C[C@H]1[C@@]3(C)CC[C@H](O[C@@H]4O[C@H](CO)[C@@H](O)[C@H](O)[C@@H]4O)C(C)(C)[C@@H]3CC[C@]12C [Gynostemma Extract] | 0.0058 |
| COc1cc2c(NC3CCN(CC4CCCCC4)CC3)nc(N3CCCN(C(C)C)CC3)nc2cc1OCCCN1CCCCC1 | 0.554 |
| C[C@@H]1C[C@H]2[C@@H]3CCC4=CC(=O)C=C[C@]4(C)[C@]3(Cl)[C@H](O)C[C@]2(C)[C@]1(OC(=O)c1ccco1)C(=O)CCl [Mometasone furoate] | -0.00393 |
| CC(C)(C)C(=O)C(Oc1ccc(Cl)cc1)n1ccnc1 (stereo unspecified) [Climbazole] | 0.052 |
| Cc1nc2ccc(CN(C)c3ccc(C(=O)N[C@@H](CCC(=O)O)C(=O)O)s3)cc2c(=O)[nH]1 [Raltitrexed] | -0.57 |
| CN(C)CCCOc1nn(Cc2ccccc2)c2ccccc12.Cl [Benzydamine HCl] | 0.634 |
| CN(C)c1ccc(C(=O)NCCCCCCC(=O)NO)cc1 | -0.315 |
| Cc1cc(O)c2c(c1)C(=O)c1cccc(O)c1C2=O [Chrysophanic Acid] | -0.808 |
| CC(/C=C/C(=O)NO)=C\[C@@H](C)C(=O)c1ccc(N(C)C)cc1 [Trichostatin A (TSA)] | -0.221 |
| CCCCC1C(=O)N(c2ccccc2)N(c2ccccc2)C1=O [Phenylbutazone] | 0.145 |

Gathered by group: the compounds so far with an aryl methoxy group

| SMILES | Prob-Test |
| --- | --- |
| CNC(=O)c1c(F)cccc1Nc1nc(Nc2cc3c(cc2OC)CCN3C(=O)CN(C)C)nc2[nH]ccc12 | 0.172 |
| COc1cc2ncnc(Nc3ccc(Cl)cc3F)c2cc1OC | -0.372 |
| COc1cc2c(NC3CCN(CC4CCCCC4)CC3)nc(N3CCCN(C(C)C)CC3)nc2cc1OCCCN1CCCCC1 | 0.554 |
